These results are taken from paper PMC11066876, “Late-Stage Saturation of Drug Molecules” (Journal of the American Chemical Society, 2024).

The data set in a line: High-throughput (direct-to-biology) human liver microsomal stability assay. (Microsomes from liver hold many membrane-bound enzymes, among them those of drug oxidation.)
Setting [1] is: both, human, microsomes, pH 7.4.

In the case of `CC(C)NCC(O)COc1ccc(CC(N)=O)cc1` (stereo not shown) [Atenolol], the “%Change After 60 min” value (%remaining after LSS minus before LSS at 60 min, human liver microsomes) is given as 1.71%. Under setting [1], the share remaining at 0.25 h, 105 µM came to 90.6%; the amount remaining at 0.5 h, 105 µM was determined as 82.5%; the amount remaining at 1 h, 105 µM amounted to 75.8%.

What is called amount remaining is the share of the starting amount still present when the sample was taken. A high value points to greater stability.
